No constants are given. Whether binding was seen depends on the method and setting. In cells and extracts the contact can be indirect. Some binding calls cover weakened binding; strength is not graded here. Where a sequence is shown, tags or fusion partners need not be part of it.
Biological target: T1, msGFP2-Pex19 (S. cerevisiae) (UniProt Q07418)
T1 sequence: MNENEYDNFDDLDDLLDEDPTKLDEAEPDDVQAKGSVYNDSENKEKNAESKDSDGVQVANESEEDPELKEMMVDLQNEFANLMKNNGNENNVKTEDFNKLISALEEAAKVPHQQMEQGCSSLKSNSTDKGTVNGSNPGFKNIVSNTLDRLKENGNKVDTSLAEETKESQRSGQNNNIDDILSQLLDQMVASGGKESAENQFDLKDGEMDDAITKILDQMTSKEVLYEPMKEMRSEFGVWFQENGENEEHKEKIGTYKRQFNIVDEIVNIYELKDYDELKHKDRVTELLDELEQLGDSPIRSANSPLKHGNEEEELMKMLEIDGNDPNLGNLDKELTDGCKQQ
Test: co-IP; GFP-Trap agarose beads on yeast lysate (50 mM HEPES pH 7.4, 150 mM NaCl, 10% glycerol, 1% CHAPS), 15 min at 4 °C; msGFP2-Pex19 as bait; Western blot against the Alfa tag and GFP

B1: Pex3-mKate2-AlfaTag (protein, UniProt P28795 1-441)
chain: MAPNQRSRSLLQRHRGKVLISLTGIAALFTTGSVVVFFVKRWLYKQQLRITEQHFIKEQIKRRFEQTQEDSLYTIYELLPVWRMVLNENDLNLDSIVTQLKDQKNQLTRAKSSESRESSPLKSKAELWNELELKSLIKLVTVTYTVSSLILLTRLQLNILTRNEYLDSAIKLTMQQENCNKLQNRFYNWVTSWWSDPEDKADDAMVMAAKKSKKEGQEVYINEQAFLSLSWWILNKGWLSYNEIITNQIEIEFDGIHPRDTLTLEEFSSRLTNIFRNTNSQIFQQNNNNLTSILLPKDSSGQEFLLSQTLDADALTSFHSNTLVFNQLVNELTQCIESTATSIVLESLINESFHFIMNKVGIKTIAKKKPGQEDQQQYQMAVFAMSMKDCCQEMLQTTAGSSHSGSVNEYLATLDSVQPLDDLSASVYSNFGVSSSFSFKP
binding: binds

B2: Pex3(W128K, L131K)-mKate2-AlfaTag (protein, UniProt P28795 1-441)
chain: MAPNQRSRSLLQRHRGKVLISLTGIAALFTTGSVVVFFVKRWLYKQQLRITEQHFIKEQIKRRFEQTQEDSLYTIYELLPVWRMVLNENDLNLDSIVTQLKDQKNQLTRAKSSESRESSPLKSKAELKNEKELKSLIKLVTVTYTVSSLILLTRLQLNILTRNEYLDSAIKLTMQQENCNKLQNRFYNWVTSWWSDPEDKADDAMVMAAKKSKKEGQEVYINEQAFLSLSWWILNKGWLSYNEIITNQIEIEFDGIHPRDTLTLEEFSSRLTNIFRNTNSQIFQQNNNNLTSILLPKDSSGQEFLLSQTLDADALTSFHSNTLVFNQLVNELTQCIESTATSIVLESLINESFHFIMNKVGIKTIAKKKPGQEDQQQYQMAVFAMSMKDCCQEMLQTTAGSSHSGSVNEYLATLDSVQPLDDLSASVYSNFGVSSSFSFKP
binding: no binding
